± gives the standard deviation of the averaged measurements. Only a part is listed here, and it is no random draw.

Data on one compound can be found in the supplement of paper PMC6411743.

What all share (experiment): NP40-soluble protein abundance relative to vehicle (solubility fold change) (ratio); higher = more soluble protein in presence of ATP
Assay [1] deals with T1, UniProt Q9UJS0 and related entries.
T1 sequence (whole entry): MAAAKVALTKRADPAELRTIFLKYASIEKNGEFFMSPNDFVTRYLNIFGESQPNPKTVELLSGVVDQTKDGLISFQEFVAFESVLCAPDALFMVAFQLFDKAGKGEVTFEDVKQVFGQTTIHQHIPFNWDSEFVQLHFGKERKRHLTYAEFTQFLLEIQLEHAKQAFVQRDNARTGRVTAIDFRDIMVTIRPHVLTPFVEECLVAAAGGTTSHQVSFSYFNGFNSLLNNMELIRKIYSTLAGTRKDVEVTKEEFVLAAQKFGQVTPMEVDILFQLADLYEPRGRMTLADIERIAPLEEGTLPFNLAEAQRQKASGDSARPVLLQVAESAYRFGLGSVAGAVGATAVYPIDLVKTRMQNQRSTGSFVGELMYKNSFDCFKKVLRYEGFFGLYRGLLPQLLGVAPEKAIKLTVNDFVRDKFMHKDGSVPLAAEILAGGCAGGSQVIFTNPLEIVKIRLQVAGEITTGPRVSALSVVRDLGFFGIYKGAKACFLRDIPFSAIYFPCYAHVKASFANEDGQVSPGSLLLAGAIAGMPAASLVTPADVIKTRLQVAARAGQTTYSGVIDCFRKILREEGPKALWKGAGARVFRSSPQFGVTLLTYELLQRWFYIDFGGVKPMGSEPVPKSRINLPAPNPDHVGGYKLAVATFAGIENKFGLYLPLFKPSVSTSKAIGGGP
A digest of the protocol: (§1)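 Eight concentrations, 0.1 to 10 mM, were tested on Jurkat crude lysate for 10 min at room temperature and then 3 min at 37 °C, in three independent experiments. The lysate was solubilised with 0.8% NP40 and benzonase, ultracentrifuged, and the supernatant TMT-labelled for LC-MS/MS. Each value is the fold change against the detergent-processed vehicle in its own replicate, from vsn-normalised intensities.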

Another assay addresses T2, UniProt Q9ULD0.
T2 sequence (whole entry): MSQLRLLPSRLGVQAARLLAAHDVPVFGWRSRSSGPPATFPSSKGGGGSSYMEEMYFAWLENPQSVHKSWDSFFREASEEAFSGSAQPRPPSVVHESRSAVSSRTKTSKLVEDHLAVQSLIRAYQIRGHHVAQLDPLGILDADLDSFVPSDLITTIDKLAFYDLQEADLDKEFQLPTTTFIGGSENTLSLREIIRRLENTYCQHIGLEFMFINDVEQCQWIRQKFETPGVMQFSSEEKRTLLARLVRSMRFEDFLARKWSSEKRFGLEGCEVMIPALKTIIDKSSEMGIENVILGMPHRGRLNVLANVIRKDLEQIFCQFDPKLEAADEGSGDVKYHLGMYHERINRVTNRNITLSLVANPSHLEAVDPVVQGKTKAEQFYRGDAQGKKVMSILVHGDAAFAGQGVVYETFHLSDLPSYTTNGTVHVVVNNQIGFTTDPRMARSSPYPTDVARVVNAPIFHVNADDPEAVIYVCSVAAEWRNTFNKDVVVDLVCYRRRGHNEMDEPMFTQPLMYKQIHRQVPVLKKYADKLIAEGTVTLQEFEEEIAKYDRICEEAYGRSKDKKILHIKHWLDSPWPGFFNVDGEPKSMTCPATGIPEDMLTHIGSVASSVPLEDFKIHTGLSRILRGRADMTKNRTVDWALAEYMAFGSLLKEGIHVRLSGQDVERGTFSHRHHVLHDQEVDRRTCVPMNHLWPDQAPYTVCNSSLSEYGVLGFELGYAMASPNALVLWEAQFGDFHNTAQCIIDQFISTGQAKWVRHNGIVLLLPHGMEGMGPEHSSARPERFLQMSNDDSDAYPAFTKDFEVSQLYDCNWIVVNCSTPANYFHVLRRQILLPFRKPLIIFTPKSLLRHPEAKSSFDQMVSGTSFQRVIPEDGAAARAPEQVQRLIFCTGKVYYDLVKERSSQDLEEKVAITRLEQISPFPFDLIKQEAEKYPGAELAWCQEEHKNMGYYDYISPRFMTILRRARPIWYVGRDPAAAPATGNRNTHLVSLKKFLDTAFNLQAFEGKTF
A digest of the protocol:
as §1

Assay [2] addresses T3, UniProt Q9UPU7 and related entries.
T3 sequence (whole entry): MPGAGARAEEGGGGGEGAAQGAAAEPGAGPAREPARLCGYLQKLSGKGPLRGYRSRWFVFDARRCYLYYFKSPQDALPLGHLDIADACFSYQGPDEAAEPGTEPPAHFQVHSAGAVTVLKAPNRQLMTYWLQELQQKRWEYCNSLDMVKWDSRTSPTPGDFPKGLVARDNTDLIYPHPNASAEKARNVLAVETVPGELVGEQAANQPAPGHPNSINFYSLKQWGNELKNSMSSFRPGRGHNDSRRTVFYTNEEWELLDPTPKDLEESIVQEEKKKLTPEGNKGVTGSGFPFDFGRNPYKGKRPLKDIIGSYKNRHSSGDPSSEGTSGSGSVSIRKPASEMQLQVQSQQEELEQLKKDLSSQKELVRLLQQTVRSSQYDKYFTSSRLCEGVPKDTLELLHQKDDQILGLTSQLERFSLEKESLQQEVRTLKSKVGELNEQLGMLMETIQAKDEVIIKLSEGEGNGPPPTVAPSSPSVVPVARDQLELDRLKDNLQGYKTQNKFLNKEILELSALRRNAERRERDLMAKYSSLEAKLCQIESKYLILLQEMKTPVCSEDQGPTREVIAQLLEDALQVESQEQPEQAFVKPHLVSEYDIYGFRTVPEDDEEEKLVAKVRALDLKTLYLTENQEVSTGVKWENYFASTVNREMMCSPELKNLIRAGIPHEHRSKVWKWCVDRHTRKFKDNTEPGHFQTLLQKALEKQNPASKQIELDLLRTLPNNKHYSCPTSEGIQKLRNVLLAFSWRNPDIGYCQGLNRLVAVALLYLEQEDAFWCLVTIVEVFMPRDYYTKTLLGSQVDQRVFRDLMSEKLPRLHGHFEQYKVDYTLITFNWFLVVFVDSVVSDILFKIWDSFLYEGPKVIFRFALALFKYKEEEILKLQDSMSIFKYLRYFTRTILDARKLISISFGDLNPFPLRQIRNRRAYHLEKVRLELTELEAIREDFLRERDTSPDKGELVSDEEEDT
The method in brief: as §1

Assay [3] concerns the target T4, UniProt Q9Y223 and related entries.
T4 sequence (whole entry): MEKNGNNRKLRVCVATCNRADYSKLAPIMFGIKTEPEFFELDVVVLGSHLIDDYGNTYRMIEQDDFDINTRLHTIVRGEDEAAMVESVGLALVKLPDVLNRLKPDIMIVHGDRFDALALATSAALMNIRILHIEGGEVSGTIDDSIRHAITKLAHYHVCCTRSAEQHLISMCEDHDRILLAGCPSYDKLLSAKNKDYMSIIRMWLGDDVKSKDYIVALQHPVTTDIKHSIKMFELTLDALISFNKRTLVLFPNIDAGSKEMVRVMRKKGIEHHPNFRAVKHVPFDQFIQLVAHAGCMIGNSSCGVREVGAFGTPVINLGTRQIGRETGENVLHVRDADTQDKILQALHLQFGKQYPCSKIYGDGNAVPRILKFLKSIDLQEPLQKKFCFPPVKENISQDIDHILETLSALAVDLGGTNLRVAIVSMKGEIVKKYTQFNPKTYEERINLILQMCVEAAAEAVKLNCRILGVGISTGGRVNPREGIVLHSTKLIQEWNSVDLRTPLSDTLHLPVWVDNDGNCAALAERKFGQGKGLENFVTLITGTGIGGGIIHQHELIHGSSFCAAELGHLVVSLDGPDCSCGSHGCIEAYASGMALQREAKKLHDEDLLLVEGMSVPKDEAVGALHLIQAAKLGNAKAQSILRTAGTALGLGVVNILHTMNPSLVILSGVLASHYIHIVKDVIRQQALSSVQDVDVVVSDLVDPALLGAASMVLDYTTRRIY
A digest of the protocol: as §1

Consider `Nc1ncnc2c1ncn2[C@@H]1O[C@H](COP(=O)(O)OP(=O)(O)OP(=O)(O)O)[C@@H](O)[C@H]1O` [adenosine triphosphate], for which the NP40-soluble protein abundance in assay [1] (concentration: 6mM) was 1.03 ± 0.12; in assay [1] (concentration: 8mM), 1.1 ± 0.075; in assay [1] (concentration: 10mM) it was 1.12 ± 0.046; with UniProt Q9ULD0 (concentration: 1mM) it was 1.15 ± 0.1; with UniProt Q9ULD0 (concentration: 2mM) it was 1.12 ± 0.15; with UniProt Q9ULD0 (concentration: 4mM), 1.05 ± 0.12. Besides, the NP40-soluble protein abundance with UniProt Q9ULD0 (concentration: 6mM) turned out to be 1.08 ± 0.22; in the assay with UniProt Q9ULD0 (concentration: 8mM) it was 1.11 ± 0.19; with UniProt Q9ULD0 (concentration: 10mM) it was 1.1 ± 0.2; in assay [2] (concentration: 1mM) it was 1.01 ± 0.02; in assay [2] (concentration: 2mM), 1.01 ± 0.048; in assay [2] (concentration: 4mM) it was 0.995 ± 0.015. Moreover, the NP40-soluble protein abundance in assay [2] (concentration: 6mM) came out at 1.06 ± 0.081; in assay [2] (concentration: 8mM) it was 0.9963 ± 0.0076; in assay [2] (concentration: 10mM), 0.9865 ± 0.0087; in assay [3] (concentration: 1mM) it was 0.992 ± 0.064; in assay [3] (concentration: 2mM), 0.981 ± 0.065; in assay [3] (concentration: 4mM), 0.973 ± 0.032. In addition, the figures for the NP40-soluble protein abundance in assay [3] (concentration: 6mM), in assay [3] (concentration: 8mM) and in assay [3] (concentration: 10mM) were 0.899 ± 0.045, 0.97 ± 0.03 and 0.947 ± 0.058, respectively.
